Laboratory results reported in the supplement of paper PMC12067093, “Discovery and optimisation of a covalent ligand for TRIM25 and its application to targeted protein ubiquitination” (Chemical Science, 2025).
This is one part of the list.

By UniProt entry, the sequences of proteins in these tests, tags left out. Where a name states a change or a piece, a line headed by the entry shows the natural chain unless it says otherwise.
UniProt Q9GZT8: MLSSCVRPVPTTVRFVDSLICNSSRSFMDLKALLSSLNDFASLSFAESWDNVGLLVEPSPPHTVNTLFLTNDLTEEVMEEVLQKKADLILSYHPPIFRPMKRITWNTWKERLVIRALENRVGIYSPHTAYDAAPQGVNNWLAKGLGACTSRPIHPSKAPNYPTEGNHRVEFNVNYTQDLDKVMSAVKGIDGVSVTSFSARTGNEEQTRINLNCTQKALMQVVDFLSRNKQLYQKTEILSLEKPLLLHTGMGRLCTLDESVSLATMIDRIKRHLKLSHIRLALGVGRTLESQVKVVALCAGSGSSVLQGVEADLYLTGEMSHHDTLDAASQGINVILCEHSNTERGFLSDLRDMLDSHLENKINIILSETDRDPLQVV
UniProt Q00653: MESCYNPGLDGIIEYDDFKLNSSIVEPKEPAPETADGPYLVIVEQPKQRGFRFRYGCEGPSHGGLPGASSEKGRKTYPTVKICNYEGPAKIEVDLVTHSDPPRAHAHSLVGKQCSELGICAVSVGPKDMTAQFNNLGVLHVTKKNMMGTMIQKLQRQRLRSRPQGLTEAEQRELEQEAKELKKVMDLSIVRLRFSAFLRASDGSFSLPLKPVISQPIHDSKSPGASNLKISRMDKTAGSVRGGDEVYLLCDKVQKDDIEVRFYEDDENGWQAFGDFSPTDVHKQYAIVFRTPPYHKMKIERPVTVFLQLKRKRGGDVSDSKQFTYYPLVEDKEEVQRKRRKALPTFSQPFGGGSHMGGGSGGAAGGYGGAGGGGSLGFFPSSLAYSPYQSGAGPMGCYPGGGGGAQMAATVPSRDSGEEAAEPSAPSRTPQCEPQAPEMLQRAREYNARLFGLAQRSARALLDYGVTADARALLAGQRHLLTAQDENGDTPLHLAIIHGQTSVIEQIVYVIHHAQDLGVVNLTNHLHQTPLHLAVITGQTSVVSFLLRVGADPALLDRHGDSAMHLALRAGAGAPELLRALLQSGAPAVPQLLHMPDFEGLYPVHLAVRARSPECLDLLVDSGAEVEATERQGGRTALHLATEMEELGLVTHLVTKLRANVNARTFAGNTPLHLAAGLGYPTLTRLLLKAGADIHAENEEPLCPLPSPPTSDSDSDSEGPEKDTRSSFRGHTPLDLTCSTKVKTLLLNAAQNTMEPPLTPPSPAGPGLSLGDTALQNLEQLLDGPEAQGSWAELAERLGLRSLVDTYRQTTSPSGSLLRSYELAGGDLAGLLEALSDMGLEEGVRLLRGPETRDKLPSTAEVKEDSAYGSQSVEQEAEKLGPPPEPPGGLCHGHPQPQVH
UniProt Q15223: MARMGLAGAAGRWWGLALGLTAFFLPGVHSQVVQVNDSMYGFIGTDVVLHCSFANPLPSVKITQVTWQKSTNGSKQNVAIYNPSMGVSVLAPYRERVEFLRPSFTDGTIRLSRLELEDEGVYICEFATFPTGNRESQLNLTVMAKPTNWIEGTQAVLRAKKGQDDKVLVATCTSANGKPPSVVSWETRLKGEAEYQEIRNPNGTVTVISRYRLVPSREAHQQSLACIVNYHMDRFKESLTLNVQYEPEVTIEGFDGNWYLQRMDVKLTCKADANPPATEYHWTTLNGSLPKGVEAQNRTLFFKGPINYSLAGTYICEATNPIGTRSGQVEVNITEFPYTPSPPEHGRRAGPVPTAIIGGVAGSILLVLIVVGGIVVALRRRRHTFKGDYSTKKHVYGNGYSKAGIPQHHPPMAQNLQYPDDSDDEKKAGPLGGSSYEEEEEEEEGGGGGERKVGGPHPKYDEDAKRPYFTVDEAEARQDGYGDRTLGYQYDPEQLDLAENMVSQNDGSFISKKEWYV
UniProt Q9Y618, whole entry, looked up: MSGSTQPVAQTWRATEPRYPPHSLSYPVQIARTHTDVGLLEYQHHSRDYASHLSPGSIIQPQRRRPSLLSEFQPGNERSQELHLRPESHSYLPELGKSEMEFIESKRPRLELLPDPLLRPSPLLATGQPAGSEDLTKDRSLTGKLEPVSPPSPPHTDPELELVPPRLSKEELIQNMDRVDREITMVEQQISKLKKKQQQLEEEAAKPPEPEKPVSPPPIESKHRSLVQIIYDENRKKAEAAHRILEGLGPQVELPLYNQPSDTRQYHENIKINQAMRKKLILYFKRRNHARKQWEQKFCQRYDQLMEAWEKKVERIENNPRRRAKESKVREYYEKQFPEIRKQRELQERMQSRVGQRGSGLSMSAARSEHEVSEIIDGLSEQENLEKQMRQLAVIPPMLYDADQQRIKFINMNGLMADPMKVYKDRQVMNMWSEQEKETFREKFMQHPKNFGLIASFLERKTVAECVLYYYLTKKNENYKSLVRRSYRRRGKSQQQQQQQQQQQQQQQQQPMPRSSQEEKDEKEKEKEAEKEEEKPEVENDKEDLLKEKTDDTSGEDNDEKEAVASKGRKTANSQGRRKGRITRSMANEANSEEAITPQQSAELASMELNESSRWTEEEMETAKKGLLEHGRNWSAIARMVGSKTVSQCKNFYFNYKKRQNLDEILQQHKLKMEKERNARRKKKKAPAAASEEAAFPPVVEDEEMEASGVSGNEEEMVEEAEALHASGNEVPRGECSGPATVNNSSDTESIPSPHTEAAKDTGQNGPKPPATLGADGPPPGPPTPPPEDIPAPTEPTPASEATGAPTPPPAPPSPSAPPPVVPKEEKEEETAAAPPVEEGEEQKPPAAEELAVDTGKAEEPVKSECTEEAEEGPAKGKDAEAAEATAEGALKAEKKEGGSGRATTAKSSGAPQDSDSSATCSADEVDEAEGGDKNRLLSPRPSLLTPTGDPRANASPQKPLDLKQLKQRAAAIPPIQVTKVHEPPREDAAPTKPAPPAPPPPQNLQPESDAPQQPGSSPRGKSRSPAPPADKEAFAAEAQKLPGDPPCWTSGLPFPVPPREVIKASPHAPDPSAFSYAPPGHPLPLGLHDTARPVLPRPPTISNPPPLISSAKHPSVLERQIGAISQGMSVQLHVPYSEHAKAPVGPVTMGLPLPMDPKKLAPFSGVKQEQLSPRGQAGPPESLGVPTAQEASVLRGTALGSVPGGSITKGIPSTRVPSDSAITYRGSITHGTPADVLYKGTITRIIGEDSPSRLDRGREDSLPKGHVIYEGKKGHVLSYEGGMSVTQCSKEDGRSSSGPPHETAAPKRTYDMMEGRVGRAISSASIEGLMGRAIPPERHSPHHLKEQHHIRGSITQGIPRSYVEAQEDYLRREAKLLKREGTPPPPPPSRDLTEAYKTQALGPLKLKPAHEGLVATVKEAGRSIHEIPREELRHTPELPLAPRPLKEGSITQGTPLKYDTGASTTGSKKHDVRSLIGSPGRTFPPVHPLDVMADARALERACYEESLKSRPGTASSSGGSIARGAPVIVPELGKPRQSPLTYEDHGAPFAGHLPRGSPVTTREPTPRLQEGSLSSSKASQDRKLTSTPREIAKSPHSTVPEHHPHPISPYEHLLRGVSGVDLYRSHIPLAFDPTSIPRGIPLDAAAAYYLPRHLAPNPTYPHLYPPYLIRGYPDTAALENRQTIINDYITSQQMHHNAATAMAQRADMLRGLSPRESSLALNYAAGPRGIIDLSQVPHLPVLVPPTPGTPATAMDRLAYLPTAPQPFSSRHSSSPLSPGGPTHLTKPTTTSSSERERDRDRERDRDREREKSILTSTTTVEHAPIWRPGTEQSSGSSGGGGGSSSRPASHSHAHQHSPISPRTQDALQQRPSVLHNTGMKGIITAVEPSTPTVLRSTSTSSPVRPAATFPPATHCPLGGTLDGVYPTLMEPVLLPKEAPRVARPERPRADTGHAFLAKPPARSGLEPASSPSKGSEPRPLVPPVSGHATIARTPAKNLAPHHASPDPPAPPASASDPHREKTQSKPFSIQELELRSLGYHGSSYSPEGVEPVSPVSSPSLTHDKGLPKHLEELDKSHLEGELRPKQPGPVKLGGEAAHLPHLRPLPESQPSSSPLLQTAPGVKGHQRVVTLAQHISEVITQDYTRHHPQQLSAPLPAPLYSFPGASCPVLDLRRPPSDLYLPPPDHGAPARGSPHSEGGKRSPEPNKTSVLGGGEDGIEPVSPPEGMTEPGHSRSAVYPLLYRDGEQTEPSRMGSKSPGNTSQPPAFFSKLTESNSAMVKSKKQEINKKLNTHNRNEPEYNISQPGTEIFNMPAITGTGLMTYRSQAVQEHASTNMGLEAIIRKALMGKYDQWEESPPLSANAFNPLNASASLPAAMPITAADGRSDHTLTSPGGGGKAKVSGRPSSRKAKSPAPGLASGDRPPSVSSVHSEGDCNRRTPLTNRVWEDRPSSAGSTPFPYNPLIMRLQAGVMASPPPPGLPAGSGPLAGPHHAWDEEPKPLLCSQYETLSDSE
UniProt Q6ZNB6: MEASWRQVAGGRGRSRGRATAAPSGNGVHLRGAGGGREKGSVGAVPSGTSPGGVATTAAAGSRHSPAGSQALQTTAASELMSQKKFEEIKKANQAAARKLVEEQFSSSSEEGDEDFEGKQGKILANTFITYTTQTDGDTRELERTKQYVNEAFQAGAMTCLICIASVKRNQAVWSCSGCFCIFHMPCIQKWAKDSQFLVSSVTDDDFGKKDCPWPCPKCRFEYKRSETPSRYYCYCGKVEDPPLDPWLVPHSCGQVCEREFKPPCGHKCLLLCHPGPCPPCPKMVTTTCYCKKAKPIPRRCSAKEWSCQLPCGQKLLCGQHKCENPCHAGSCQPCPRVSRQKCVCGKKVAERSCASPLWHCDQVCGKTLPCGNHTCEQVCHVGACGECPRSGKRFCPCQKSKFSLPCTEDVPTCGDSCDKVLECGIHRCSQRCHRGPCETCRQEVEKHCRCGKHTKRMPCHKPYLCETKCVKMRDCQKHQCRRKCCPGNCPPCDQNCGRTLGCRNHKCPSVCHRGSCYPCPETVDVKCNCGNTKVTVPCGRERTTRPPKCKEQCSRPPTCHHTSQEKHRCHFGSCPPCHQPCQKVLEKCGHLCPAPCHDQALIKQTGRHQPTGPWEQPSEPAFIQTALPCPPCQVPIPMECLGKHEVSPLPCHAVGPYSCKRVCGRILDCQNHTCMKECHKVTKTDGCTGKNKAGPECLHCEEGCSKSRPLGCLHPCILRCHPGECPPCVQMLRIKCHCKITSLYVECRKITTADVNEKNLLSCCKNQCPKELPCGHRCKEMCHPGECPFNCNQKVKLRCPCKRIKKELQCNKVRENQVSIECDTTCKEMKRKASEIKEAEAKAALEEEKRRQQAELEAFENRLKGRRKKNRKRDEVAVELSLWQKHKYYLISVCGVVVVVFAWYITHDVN
UniProt Q9NQR4: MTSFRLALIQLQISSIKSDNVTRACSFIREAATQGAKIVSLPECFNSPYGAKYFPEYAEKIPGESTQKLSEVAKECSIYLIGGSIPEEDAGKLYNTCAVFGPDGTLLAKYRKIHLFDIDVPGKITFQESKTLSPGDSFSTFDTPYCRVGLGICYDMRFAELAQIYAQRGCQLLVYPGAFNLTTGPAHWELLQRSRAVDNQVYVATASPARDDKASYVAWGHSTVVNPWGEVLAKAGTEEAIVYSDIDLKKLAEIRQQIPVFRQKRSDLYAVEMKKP
UniProt O60524: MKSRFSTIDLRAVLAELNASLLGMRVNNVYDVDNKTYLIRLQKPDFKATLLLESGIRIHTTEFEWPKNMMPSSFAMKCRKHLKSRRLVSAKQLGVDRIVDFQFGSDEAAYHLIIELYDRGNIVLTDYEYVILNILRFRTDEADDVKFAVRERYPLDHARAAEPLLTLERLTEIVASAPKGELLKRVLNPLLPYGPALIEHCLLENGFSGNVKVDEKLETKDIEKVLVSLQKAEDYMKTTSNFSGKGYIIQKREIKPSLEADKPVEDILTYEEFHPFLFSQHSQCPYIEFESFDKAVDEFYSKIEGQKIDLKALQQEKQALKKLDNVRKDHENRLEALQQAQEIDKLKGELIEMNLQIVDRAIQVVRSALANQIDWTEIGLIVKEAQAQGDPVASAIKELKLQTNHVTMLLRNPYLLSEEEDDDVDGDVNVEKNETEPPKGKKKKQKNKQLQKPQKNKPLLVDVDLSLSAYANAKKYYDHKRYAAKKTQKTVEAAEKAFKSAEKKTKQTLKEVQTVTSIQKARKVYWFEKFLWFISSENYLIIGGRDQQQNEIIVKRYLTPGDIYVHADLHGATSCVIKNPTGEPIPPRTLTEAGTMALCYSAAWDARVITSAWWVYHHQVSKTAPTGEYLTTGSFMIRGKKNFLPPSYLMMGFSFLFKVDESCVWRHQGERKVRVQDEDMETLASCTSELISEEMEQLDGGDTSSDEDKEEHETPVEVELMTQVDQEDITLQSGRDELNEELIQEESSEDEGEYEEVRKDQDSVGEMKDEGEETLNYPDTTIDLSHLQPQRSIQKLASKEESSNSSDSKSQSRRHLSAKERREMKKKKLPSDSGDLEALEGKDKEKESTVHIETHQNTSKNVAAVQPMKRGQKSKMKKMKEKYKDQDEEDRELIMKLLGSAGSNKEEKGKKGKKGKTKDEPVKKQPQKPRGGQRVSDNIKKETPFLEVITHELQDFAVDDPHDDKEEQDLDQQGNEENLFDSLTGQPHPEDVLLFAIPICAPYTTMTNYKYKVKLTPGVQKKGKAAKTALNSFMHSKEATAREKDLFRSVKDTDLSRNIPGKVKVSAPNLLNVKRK

Compound: CC1Cc2ccccc2N1C(=O)C1CCCN(C1)C(=O)CCl (mixture of isomers) [TRIM25 ligand 11 (diastereomer mixture)]
Experiment: probe-labelled cysteine peptide fold change vs DMSO (competition) (log2 fold change); higher = less target engagement (more negative = stronger competition)
Conditions: THP-1, incubation time: 4 h
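Note: competitive chemoproteomic profiling in live THP-1 cells with an iodoacetamide desthiobiotin (IA-DTB) probe, comparing probe-labelled peptide intensities in compound-treated cells against DMSO-treated controls.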

Target | probe-labelled cysteine peptide fold change (10 µM) | probe-labelled cysteine peptide fold change (50 µM)
NISCH_Q9Y2I1_935_GTHNCR (UniProt Q9Y2I1) | -0.0567 | -0.177
NFATC2_Q13469_569_IVSLQTASNPIECSQR (UniProt Q13469) | 0.141 | 0.0885
NIF3L1_Q9GZT8_213_INLNCTQK (UniProt Q9GZT8) | -0.00901 | 0.186
NIF3L1_Q9GZT8_148_GLGACTSRPIHPSK (UniProt Q9GZT8) | 0.0755 | -0.156
NFKB2_Q00653_250_GGDEVYLLCDK (UniProt Q00653) | 0.0534 | 0.0128
NECTIN1_Q15223_172_VLVATCTSANGKPPSVVSWETR (UniProt Q15223) | 0.0651 | 0.0867
NID1_P14543_1219_LYGITTALSQCPQGHNYCSVNNGGCTHLCLATPGSR (UniProt P14543) | -0.051 | -0.0572
NCKIPSD_Q9NZQ3_429_CYLEELLHILTDADPEVCKK (UniProt Q9NZQ3) | -0.131 | -0.0929
NCOR2_Q9Y618_1289_GHVLSYEGGMSVTQCSK (UniProt Q9Y618) | -0.0557 | -0.193
NEURL4_Q96JN8_527_LLFHPNCGQK (UniProt Q96JN8) | -0.0963 | -0.0727
NDUFS1_P28331_64_FCYHER (UniProt P28331) | 0.00835 | 0.0755
NFXL1_Q6ZNB6_713_SRPLGCLHPCILR (UniProt Q6ZNB6) |  | 0.0312
NCKIPSD_Q9NZQ3_700_ILNEEETSPQCQMDR (UniProt Q9NZQ3) | 0.144 | -0.0673
NIT2_Q9NQR4_170_GCQLLVYPGAFNLTTGPAHWELLQR (UniProt Q9NQR4) | -0.2 | -0.0477
NCEH1_Q6PIU2_345_TYILTCEHDVLRDDGIMYAK (UniProt Q6PIU2) | 0.0222 | 0.0537
NGLY1_Q96IV0_484_ETLFIPCENEK (UniProt Q96IV0) | 0.107 | -0.023
NELFCD_Q8IXH7_582_TEGEHDPVTEFIAHCK (UniProt Q8IXH7) | -0.00537 | 0.1
NID1_P14543_425_QCVAEGSPQR (UniProt P14543) | 0.192 | 0.15
NDUFB7_P17568_90_HDWDYCEHR (UniProt P17568) | 0.161 | 0.191

Quoted from above for reference:
Target | probe-labelled cysteine peptide fold change (10 µM) | probe-labelled cysteine peptide fold change (50 µM)
NIF3L1_Q9GZT8_213_INLNCTQK (UniProt Q9GZT8) | -0.00901 | 0.186
NIF3L1_Q9GZT8_148_GLGACTSRPIHPSK (UniProt Q9GZT8) | 0.0755 | -0.156
NFKB2_Q00653_250_GGDEVYLLCDK (UniProt Q00653) | 0.0534 | 0.0128
NECTIN1_Q15223_172_VLVATCTSANGKPPSVVSWETR (UniProt Q15223) | 0.0651 | 0.0867
NID1_P14543_1219_LYGITTALSQCPQGHNYCSVNNGGCTHLCLATPGSR (UniProt P14543) | -0.051 | -0.0572
NCKIPSD_Q9NZQ3_429_CYLEELLHILTDADPEVCKK (UniProt Q9NZQ3) | -0.131 | -0.0929
NCOR2_Q9Y618_1289_GHVLSYEGGMSVTQCSK (UniProt Q9Y618) | -0.0557 | -0.193

Additional results follow.

Target | probe-labelled cysteine peptide fold change (10 µM) | probe-labelled cysteine peptide fold change (50 µM)
NEK9_Q8TD19_506_EVYSWGCGEYGR (UniProt Q8TD19) | 0.0396 | 0.00542
NHLRC2_Q8NBF2_716_AILFSQPLQITDTQQGCIAPVELR (UniProt Q8NBF2) | -0.131 | -0.194
NCOA7_Q8NI08_487_GALDLETCEK (UniProt Q8NI08) | -0.182 | -0.181
NECAP1_Q8NC96_12_ATELEYESVLCVKPDVSVYR (UniProt Q8NC96) | 0.0885 | -0.0381
NFXL1_Q6ZNB6_335_CENPCHAGSCQPCPR (UniProt Q6ZNB6) | 0.197 | 0.0241
NFX1_Q12986_684_SEDATFMCDK (UniProt Q12986) | -0.148 | -0.0603
NEMF_O60524_201_RVLNPLLPYGPALIEHCLLENGFSGNVK (UniProt O60524) | -0.141 | 0.022
NFKBIE_O00221_457_GLMGISSTLCK (UniProt O00221) | -0.147 | 0.021
NCKAP5L_Q9HCH0_1076_NGLVGPLQGCGKPPGKPSSEPGRR (UniProt Q9HCH0) | -0.117 | -0.14
NDUFA8_P51970_36_AAAHHYGAQCDKPNK (UniProt P51970) | -0.0944 | 0.0873
NEMF_O60524_201_VLNPLLPYGPALIEHCLLENGFSGNVK (UniProt O60524) | 0.0627 | 0.0743
NDRG3_Q9UGV2_359_SVTSNQSDGTQESCESPDVLDR (UniProt Q9UGV2) | 0.0132 | 0.0069
NCKAP1L_P55160_942_EVFSSHCPFLMGPIECLK (UniProt P55160) | -0.0872 | 0.14
NDUFA10_O95299_112_HFPEAGIHYPDSTTGDGKPLATDYNGNCSLEK (UniProt O95299) | -0.0444 | -0.124
NFIC_P08651_157+163_AAQCGHPVLCVQPHHIGVAVK (UniProt P08651) | -0.117 | -0.0985
NDUFV1_P49821_425_QIEGHTICALGDGAAWPVQGLIR (UniProt P49821) | -0.401 | 0.306
NCOA3_Q9Y6Q9_716_DTSSITSCGDGNVVK (UniProt Q9Y6Q9) | -0.118 | -0.309
NCOR1_O75376_1274_ESPVSAPLEGLICR (UniProt O75376) | -0.0861 | -0.136
NIN_Q8N4C6_1261_LLYEDVSRENDCLQEELR (UniProt Q8N4C6) | 0.085 | -0.121
